Source: PubChem BioAssay AID1347076 (National Center for Advancing Translational Sciences (NCATS), 2019)
Out of some 400,000 compounds screened, about 13,000 (3.2%) were called active. Inconclusive results, whose numbers are uncertain, are shown with a selection of clear calls. Calls follow the shape of the dose curve; as a rule, active = well fitted cell-killing curve with a large enough effect; inconclusive = small, poorly fitted or top-dose-only effect, or effect the other way; inactive = flat fitted curve, though single readings scatter. Where the call is inconclusive, the potency comes from a doubtful curve fit.

Experiment: qHTS assay for MDR1-selective chemotherapeutics: Primary screen using the drug-selected MDR subline cells KB-V1; also: nearly all actives have a fitted effect of over 60% in size
Conditions: KB-V1 MDR cells viability, CellTiter-Glo, 72 h; activity change, negative = cytotoxicity: at 46.1 µM (top of the series)
Method in brief: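 Cytotoxicity toward P-gp-expressing KB-V1 cells was determined as loss of CellTiter-Glo luminescence after 72 h at 37 degrees C. Compounds were tested in quantitative HTS format across a concentration range, with curves fitted to normalized data.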
% is scaled to controls: 0 for no effect and ±100 for the full control effect; potency is read from the fitted curve at half-maximal effect.

SMILES	Potency	activity change, negative = cytotoxicity
O=C(Nc1ccc(N2CCOCC2)cc1)c1ccc(Cl)c(S(=O)(=O)N2CCCCC2)c1	inconclusive: 1.84 µM [cytotoxic, partial curve, poor fit]	
CCOC(=O)c1cc[n+](CC(=O)c2ccc(F)cc2)cc1	inconclusive: 29.1 µM [rising, single point]	
CC(=O)c1cccc(NC(=O)c2ccc3nc(Cc4ccccc4)oc3c2)c1	inconclusive: 14.6 µM [cytotoxic, partial curve, poor fit]	
CC(C)Oc1ccc(/C(O)=C2/C(=O)C(=O)N(CCN3CCNCC3)C2c2ccc(C(C)C)cc2)cc1 (stereo unspecified)	inconclusive: 29.1 µM [rising, single point]	
CC(=O)O[C@H]1[C@H](O)[C@H](Oc2c(O)c(C)c3c4c2[C@@H](C)CC[C@@H]4[C@@H](C)C[C@H]3C=C(C)C)O[C@@H](C)[C@H]1O	inactive	
O=C(CCN1CCCCCC1)Nc1ccc(F)cc1	inconclusive: 29.1 µM [cytotoxic, single point]	
C/C(=N\OCC(=O)Nc1ccc2c(c1)OCCO2)c1ccc2c(c1)OCCO2	inconclusive: 20.6 µM [cytotoxic, single point]	
c1ccc(CN2CCN(c3nc(-c4ccccc4)nc(-n4ccnc4)n3)CC2)cc1	inconclusive: 23.1 µM [cytotoxic, partial curve, poor fit]	
CCNc1nc(NCC)n2c(SCC(=O)c3ccc(C(C)C)cc3)nnc2n1	inconclusive: 25.9 µM [cytotoxic, single point]	
Cc1nn(-c2ccccc2)c(CC(C)(C)C(=O)O)c1C(=O)O	inconclusive: 9.2 µM [rising, partial curve, poor fit]	
Cc1ccc(S(=O)(=O)N2C[C@@H]3[C@H]4CC[C@H](C4)[C@@H]3[C@@H](C)[C@@H]2c2cn(Cc3ccccc3)c3ccc(F)cc23)cc1	inactive	
CCCCCn1c(SCC(=O)c2ccccc2)nc2cc(C(=O)NCc3ccco3)ccc2c1=O	inconclusive: 2.31 µM [cytotoxic, full curve]	
C=CCC(CC)C(=O)NC(=O)N1CCCc2ccccc21 (stereo unspecified)	inactive	
CCCN1C(=O)c2ccc(C(=O)Nc3cc(C)ccc3O)cc2C1=O	inactive	
COc1cc(S(=O)(=O)N(Cc2ccc(C)cc2)Cc2ccco2)ccc1-n1cnnn1	inconclusive: 29.1 µM [cytotoxic, single point]	
COc1ccc(OC)c(NC(=O)CCc2c[nH]c3ccccc23)c1	inconclusive: 29.1 µM [cytotoxic, single point]	
Cc1cc(C)cc(NC(=S)N2CCN(Cc3ccccc3)CC2)c1	inactive	
N#CCN1CCCC(C(N)=O)C1 (stereo unspecified)	inconclusive: 9.2 µM [rising, partial curve]	
Cn1c(=O)c2c(ncn2CC(COCc2ccccc2Cl)OCc2ccccc2Cl)n(C)c1=O (stereo unspecified)	inconclusive: 20.6 µM [cytotoxic, partial curve, poor fit]	
Cc1ccc(C)c(NC(=O)C(CC(C)C)N2Cc3ccccc3C2=O)c1 (stereo unspecified)	inactive	
CCCN1Cc2cccc(C(=O)Nc3cc(Cl)ccc3C)c2C1=O	inactive	
CCN(CC(O)Cn1c2ccccc2c2ccccc21)S(=O)(=O)c1ccc(C)cc1 (stereo unspecified)	inconclusive: 18.4 µM [cytotoxic, single point]	
O=C(N/N=C/c1cc2c(cc1Cl)OCO2)c1cc(-c2ccccc2)n[nH]1	inactive	
Cc1cc(O)cc(O)c1C(=O)Cc1cnn(-c2ccccc2)c1	active: 16.4 µM	

Shown comma-delimited: part of the list above.
SMILES,Potency,"activity change, negative = cytotoxicity"
Cc1ccc(C)c(NC(=O)C(CC(C)C)N2Cc3ccccc3C2=O)c1 (stereo unspecified),inactive,
CCCN1Cc2cccc(C(=O)Nc3cc(Cl)ccc3C)c2C1=O,inactive,
CCN(CC(O)Cn1c2ccccc2c2ccccc21)S(=O)(=O)c1ccc(C)cc1 (stereo unspecified),"inconclusive: 18.4 µM [cytotoxic, single point]",

Additional results.

SMILES	Potency	activity change, negative = cytotoxicity
COc1ccc(NC(=O)CCN2CCOCC2)c(OC)c1		inconclusive: 37.4%
O=C(O)c1ccc(-c2sc(Nc3ccccc3)n[n+]2-c2ccccc2)cc1	inactive	
COc1ccc(-c2csc3ncnc(NCCCO)c23)cc1	inconclusive: 14.6 µM [cytotoxic, partial curve]	
CC(C)(C)c1csc(NC(=O)c2ccccc2O)n1	inconclusive: 25.9 µM [cytotoxic, single point]	
COc1ccc(C(=O)N2CCOC2CNC(=O)C(=O)NCc2ccc(F)cc2)cc1 (stereo unspecified)	inconclusive: 14.6 µM [cytotoxic, partial curve, poor fit]	
O=C(CSc1nc2ccccc2c(=O)n1-c1ccccc1F)NC1CCS(=O)(=O)C1 (stereo unspecified)	inconclusive: 29.1 µM [rising, single point]	
CC(=O)c1ccc(OCc2cc(C(=O)N3CCCCC3c3cccnc3)no2)cc1 (stereo unspecified)	inconclusive: 13 µM [cytotoxic, partial curve]	
COc1ccc2cc(-c3ccn[nH]3)ccc2c1	inconclusive: 4.61 µM [cytotoxic, partial curve]	
COc1cccc(C(=O)Nc2ccc(N3CCN(C(=O)c4cccs4)CC3)cc2)c1	active: 2.31 µM	
CC(C(=O)Nc1cc([N+](=O)[O-])ccc1Cl)N1CCN(c2ccc(O)cc2)CC1 (stereo unspecified)	inconclusive: 11.6 µM [cytotoxic, partial curve]	
CCOC(=O)C1(Cc2ccccc2)CCN(CC2CC=CCC2)CC1 (stereo unspecified)	inconclusive: 23.1 µM [cytotoxic, single point]	
COc1cc(-c2nc(SCC(=O)Nc3ccc4c(c3)OCO4)c(-c3ccccc3)[nH]2)cc(OC)c1OC	inconclusive: 32.6 µM [cytotoxic, partial curve, poor fit]	
Cc1nn(-c2ccccc2)c(C)c1/C=N/NC(=O)CSc1nc2ccccc2c(=O)n1-c1ccccc1	inactive	
COc1ccc(NC(=O)N2CCn3c2nc2ccccc23)cc1	inconclusive: 20.6 µM [cytotoxic, partial curve, poor fit]	
COc1ccc(NC(=O)C2CCN(S(=O)(=O)c3ccc(OC)c(OC)c3)CC2)cc1	inactive	
O=C1CN(C(=O)COC(=O)CCS(=O)(=O)c2ccccc2)c2ccccc2N1	inactive	
Cn1c(CC(=O)NNC(=O)c2ccc(F)cc2Cl)nc2ccccc21	inactive	
O=C(N/N=C/c1cn[nH]c1-c1ccc(Cl)cc1)c1ccc([N+](=O)[O-])cc1	inactive	
Cc1cc2n(n1)C(c1sccc1C)Nc1c(C)cccc1-2 (stereo unspecified)	inconclusive: 25.9 µM [cytotoxic, single point]	
Cc1ccc(S(=O)(=O)NC(=O)NCC2CCN(S(=O)(=O)c3ccccc3)CC2)cc1	inactive	
Cc1[nH]c2ccc(C(=O)O)cc2c1C	inactive	
Cc1ccc(C(=O)N2CCN(c3ccc4c(c3)C3CC4CCN3C(=O)OCc3ccccc3)CC2)cc1 (stereo unspecified)	inconclusive: 20.6 µM [cytotoxic, partial curve, poor fit]	
COc1ccc(OCCn2c(NC(=O)c3ccc(OC)cc3)nc3ccccc32)cc1	inconclusive: 2.91 µM [cytotoxic, full curve]	
Cc1ccc(NC(=O)COc2ccc(-n3cnnn3)cc2)cc1C		inconclusive: 11.5%

SMILES	Potency	activity change, negative = cytotoxicity
O=C(CCC(=O)N1CCc2ccccc2C1)N1CCN(S(=O)(=O)c2ccccc2)CC1	active: 13 µM	
Oc1ccc(Br)cc1C1C=C(c2ccc3c(c2)OCO3)NC(c2ccc(Br)cc2)N1 (stereo unspecified)	inactive	
CC(C)n1ncc2c(C(=O)Nc3cccc(S(=O)(=O)N(C)C)c3)cc(C3CC3)nc21	active: 8.2 µM	
CCOC(=O)c1cc2ccc3ccccc3c2oc1=O	inconclusive: 18.4 µM [rising, single point]	
CC1CCN(CC[S-])CC1.O.O.[Cl][Pt]	inconclusive: 29.1 µM [cytotoxic, single point]	
NC(=S)NN=C1CCSCC1	inactive	
O=C(CNc1cc(S(=O)(=O)N2CCCC2)ccc1OCC(F)(F)F)Nc1cccc(C(F)(F)F)c1	active: 9.2 µM	
CCc1ccccc1NC(=O)c1cn(C)c(=O)c2ccccc12	inconclusive: 10.3 µM [rising, partial curve, poor fit]	
CCN(CC)C(=O)Cn1cc(C(=O)C(=O)NCC2COc3ccccc3O2)c2ccccc21 (stereo unspecified)	inconclusive: 5.17 µM [cytotoxic, full curve]	
Nc1o[nH]c(=O)c1C1CCCCC1	inactive	
CC(C)c1nc2c(s1)CCc1onc(-c3cccc([N+](=O)[O-])c3)c1-2	inactive	
CCn1c(COc2ccc(Cl)cc2Cl)nc2ccccc21	inactive	
CC1Cc2ccccc2N1S(=O)(=O)c1ccc2c(c1)n(C)c(=O)c(=O)n2C (stereo unspecified)	active: 16.4 µM	
O=C(Nc1ccc2c(c1)OCO2)C1CC(c2ccc(Cl)cc2)=NO1 (stereo unspecified)	inactive	
CC(=O)Nc1ccc(NC(=O)CSc2ncnc3sc(C)c(C)c23)cc1	inconclusive: 20.6 µM [cytotoxic, partial curve, poor fit]	
CCOC(=O)C(=CNc1nc(-c2ccc3ccccc3c2)cs1)C(=O)OCC	inconclusive: 3.66 µM [rising, full curve]	
O=C(c1ccc(-c2ccccc2Cl)o1)N1CCN(S(=O)(=O)c2cccs2)CC1	active: 20.6 µM	
CCOc1cc(NC(=O)CCl)c(OCC)cc1NC(=O)CCl	inconclusive: 20.6 µM [cytotoxic, single point]	
Cc1c(N2C(=O)/C(=C\c3cccc4ccccc34)SC2=S)c(=O)n(-c2ccccc2)n1C	inactive	
COc1ccc(S(=O)(=O)N2Cc3ccccc3CC2C(=O)Nc2ccc(C)cc2)cc1OC (stereo unspecified)	inconclusive: 25.9 µM [rising, single point]	
O=C1CCN(Cc2ccccc2)C(=O)N1	inconclusive: 20.6 µM [rising, partial curve, poor fit]	
COc1cccc(CN(C)Cc2cc(=O)oc3c(C)c(C)ccc23)c1	inactive	
N#Cc1ccc(C(S(=O)(=O)Cc2ccccc2)S(=O)(=O)Cc2ccccc2)cc1	inconclusive: 25.9 µM [cytotoxic, single point]	
